Data as given in the supplement of paper PMC12578635.
± gives the standard deviation of the averaged measurements. Some of the results follow. Many values rest on one well or one pass, so single values are uncertain.

Each compound was assayed on RAW 264.7 macrophages infected with S. aureus JE2-lux (assay: host macrophage viability (CellTiter-Fluor) relative to DMSO vehicle; higher = more viable host cells). Conditions: 10 µM; treatment time 4 h; gentamicin 50 µg/ml.

Row | SMILES | host macrophage viability [%]
1 | CC(=O)c1cccc(NC(=O)c2csc3nc(-c4ccc(F)cc4)cn23)c1 | 107
2 | COc1ccc(C2CC(=O)Nc3c2c(C)nn3-c2nc3ccccc3[nH]2)cc1Br (configuration not stated) | 131
3 | CS(=O)(=O)c1ccc(Sc2nc3ccccc3s2)c([N+](=O)[O-])c1 | 102
4 | CSc1nc2ccc(NC(=O)Nc3cccc(Cl)c3)cc2s1 | 118
5 | COc1cc(OC)c(NC(=O)c2sc3nc(C)nc(N4CCCC4)c3c2C)cc1Cl | 112
6 | CN(C1CCCCC1)S(=O)(=O)c1ccc(C(=O)Nc2sccc2C(N)=O)cc1 | 119
7 | O=C(NC1(CN2CCCC2)CCCCC1)C1OCOc2ccccc21 (configuration not stated) | 114
8 | CCC(C)NC(=O)c1ccc2c(=O)n(C)c3n[nH]c(=S)n3c2c1 (configuration not stated) | 95.2
9 | COc1ccc2cc(CCNC(=O)Cc3cccc4ccccc34)c(=O)[nH]c2c1 | 124
10 | O=C(O)c1cc(-c2ccc(F)cc2)nc2ccccc12 | 111
11 | COc1ccc(N2C(=O)NC3CC2(C)Oc2ccc([N+](=O)[O-])cc23)c(OC)c1 (configuration not stated) | 109
12 | CCc1ccc(NC(=O)Nc2ccccc2OCc2cc(=O)n3ccc(C)cc3n2)cc1 | 136
13 | COc1ccc2[nH]c3nc(SCc4nc5ccccc5[nH]4)nnc3c2c1 | 114
14 | Cc1ccc(C)c(N2CCN(S(=O)(=O)c3c(C)sc(C)c3-c3cc(C(F)(F)F)on3)CC2)c1 | 136
15 | COc1ccc(C(=O)Nc2cccc(-c3ccc4nncn4n3)c2)c(OC)c1 | 116
16 | CN(c1cncc(C(=O)NCc2cccnc2)c1)S(=O)(=O)c1ccccc1 | 111
17 | O=C(CSc1nc2c(c(=O)[nH]1)CN(Cc1ccc(F)cc1)CC2)Nc1ccc(Cl)cc1 | 109
18 | COC(=O)CCSc1ncnc2scc(-c3ccc(Cl)cc3)c12 | 117
19 | NC(=O)C1Cc2ccccc2N1C(=O)CC(c1ccccc1)c1ccccc1 (configuration not stated) | 105
20 | CCOc1ccc(NCc2ccc(O)c3ncccc23)cc1 | 122
21 | CCCCCNC(=O)c1cc(-c2ccc(Cl)cc2)nc2[nH]nc(-c3ccc(OC)cc3)c12 | 147
22 | Cc1nc2c(C)cccc2cc1C(=O)NCCS(=O)(=O)NC1CCCCC1 | 133

Row | SMILES | host macrophage viability [%]
23 | O=c1/c(=C/c2ccc(Br)cc2)sc2nc(-c3ccncc3)nn12 | 108
24 | CCc1nnsc1C(=O)Nc1ccc(S(=O)(=O)N2CCOCC2)cc1 | 99.9
25 | O=C1NC(=O)c2cc(NC(=O)c3cc(Cl)sc3Cl)ccc21 | 105
26 | NC(=O)c1c(Nc2nc3ccc(F)cc3s2)sc2c1CCCC2 | 146 ± 11
27 | O=C(CC1SC(=O)N(c2ccccc2)C1=O)Nc1ccccc1 (configuration not stated) | 110
28 | CCCN1C(=O)C(C)(C)COc2ccc(NS(=O)(=O)c3ccc4c(c3)CCCC4)cc21 | 119
29 | COc1cccc(/C=N/c2cccc3c(=O)[nH][nH]c(=O)c23)c1O | 129
30 | Cn1c(SCC(=O)N2CCCC2)nc2c(-c3ccccc3)csc2c1=O | 112
31 | O=C(CN(Cc1ccc(Cl)cc1)C(=O)c1cccnc1)N1CCNCC1 | 124
32 | COCCN(Cc1cc2cc3c(cc2nc1Cl)OCO3)C(=O)NCc1ccccc1 | 105
33 | N#C/C(C(=O)NCc1ccco1)=C1/SC=C(c2ccccc2)N1c1ccccc1 | 106
34 | O=C(NC(c1ccccc1)c1ccccc1)c1cnc2n(c1=O)CCS2 | 120
35 | Cc1c(Cl)ccc2sc(N(Cc3ccccn3)C(=O)c3ccc(S(C)(=O)=O)cc3)nc12 | 120
36 | Cc1ccnc(N2CCC(C(=O)NC3CCCCCC3)CC2)n1 | 130
37 | O=C(COc1ccc(Cl)cc1)N1CCN=C1SCc1ccccc1F | 109 ± 6.3
38 | O=C1CN(C(=O)c2ccccc2Br)C(c2ccccc2)c2cc(F)ccc2N1 (configuration not stated) | 105
39 | CC1=C(C(=O)Nc2ccc(C)cc2)C(c2ccc(N(C)C)cc2)NC(=O)N1 (configuration not stated) | 96.9
40 | Cc1cc(NC(=O)CSc2nc(=O)n(CCO)c3c2CCCC3)no1 | 107
41 | O=C(Nc1cccc2ccccc12)c1cnc2sccn2c1=O | 122 ± 5.4
42 | CC(C)COc1ccc(S(=O)(=O)Nc2ccc3c(c2)C(=O)Nc2ccccc2O3)cc1 | 105
43 | Cc1ccn2c(=O)nc(SCC(=O)N3CCC(C)CC3)nc2c1 | 120
44 | Cc1ccc(CNc2nccn(-c3ccc(C)cc3C)c2=O)cc1 | 122

Compounds listed so far that contain a nitro group on carbon, in the order listed:
Row | SMILES | host macrophage viability [%]
3 | CS(=O)(=O)c1ccc(Sc2nc3ccccc3s2)c([N+](=O)[O-])c1 | 102
11 | COc1ccc(N2C(=O)NC3CC2(C)Oc2ccc([N+](=O)[O-])cc23)c(OC)c1 (configuration not stated) | 109

Copied from the list.
host macrophage viability [%], COc1ccc2[nH]c3nc(SCc4nc5ccccc5[nH]4)nnc3c2c1 reads 114
host macrophage viability [%], CCOc1ccc(NCc2ccc(O)c3ncccc23)cc1 reads 122
host macrophage viability [%], O=C1CN(C(=O)c2ccccc2Br)C(c2ccccc2)c2cc(F)ccc2N1 (configuration not stated) reads 105
host macrophage viability [%], CN(c1cncc(C(=O)NCc2cccnc2)c1)S(=O)(=O)c1ccccc1 reads 111

Remaining list, next part.

Row | SMILES | host macrophage viability [%]
45 | CC1(C)c2sc(=O)[nH]c2SC2C(=O)N(CC(=O)O)C(=O)C21 (configuration not stated) | 122
46 | Cc1ccnc(NC(=O)Nc2c[nH]c3ccccc23)c1 | 116
47 | COCCOC(=O)c1c(C)oc2ccc(OCC(=O)c3ccc(OC)cc3)cc12 | 118
48 | Cc1c(Cl)cccc1NC(=O)Cn1c(=O)n(Cc2ccccc2)c(=O)c2sc3ccccc3c21 | 116
49 | O=c1oc2ccccc2n1CCCOc1ccccc1 | 106
50 | Cc1cc2cc(C#N)c(SCC(=O)N3CCc4ccccc43)nc2cc1C | 117
51 | CC12CC(NC(=O)N1c1ccc3c(c1)OCCO3)c1ccccc1O2 (configuration not stated) | 134
52 | COc1ccc(Cl)cc1NC(=O)CSc1ccc2nnc(-c3ccncc3)n2n1 | 122
53 | O=C1/C(=C/c2nc3ccccc3[nH]2)SC(=S)N1Nc1ccccc1 | 105
54 | Cc1nnc(SCC(=O)NCc2ccccc2Cl)[nH]c1=O | 113
55 | Cc1ccc(-c2csc(NC(=O)c3ccc(N4C(=O)CCC4=O)cc3)n2)o1 | 111 ± 4.8
56 | CC(=O)Nc1ccc(NC(=O)CSc2ccc(-c3ccc(Cl)cc3)nn2)cc1 | 110
57 | CC1(C)Cc2nc3sc4c(=O)n(CC(=O)NCC5CCCO5)cnc4c3cc2CO1 (configuration not stated) | 120
58 | CCCn1nc(C)cc1NC(=O)c1ncoc1-c1ccc(F)cc1 | 128
59 | N#Cc1cc2cc3c(cc2nc1SCC(=O)N1CCCc2ccccc21)OCO3 | 131
60 | Cc1ccc(-c2csc(-c3cccn3CC(=O)NC3CCCCCCC3)n2)cc1 | 92
61 | O=C(O)c1ccc(Oc2nccnc2N2CCCCC2)cc1 | 121
62 | CCC(=O)NNc1nc2c(Cl)cccc2s1 | 126 ± 14
63 | CSc1cccc2sc(NCc3ccccc3)nc12 | 115
64 | CCS(=O)(=O)c1ccccc1C(=O)/N=c1/sc2cc([N+](=O)[O-])ccc2n1C | 124
65 | CCOC(=O)C1=C(C)NC(O)=NC1c1ccc([N+](=O)[O-])cc1 (configuration not stated) | 125
66 | O=C(O)CC1S/C(=N\N=C/c2ccccc2)N(c2ccc(O)cc2)C1=O (configuration not stated) | 107

Row | SMILES | host macrophage viability [%]
67 | CC(C)Cn1c(N2CCCC2)nc2c1c(=O)[nH]c(=O)n2C | 106 ± 1.4
68 | CCc1cc(Sc2ccc(N)cc2)n2ncnc2n1 | 117
69 | COc1ccc(C(=O)NCc2cccnc2)cc1S(=O)(=O)N1CCOCC1 | 114
70 | c1csc(CSc2nnc3sc4ccccc4n23)c1 | 107
71 | O=C(CCN1C(=O)c2ccccc2S1(=O)=O)Nc1ncc([N+](=O)[O-])s1 | 88.6
72 | CCOC(=O)c1sc(-c2ccccc2)cc1NC(=O)CCS(=O)(=O)c1ccccc1 | 114
73 | O=C(Cc1csc2nc(-c3ccc(F)cc3)cn12)Nc1ccc(F)c(F)c1 | 114
74 | Cc1cc(NCc2ccccc2Cl)n2nc(Cc3cccc(F)c3)nc2n1 | 131
75 | CCOC(=O)c1ccc(NC(=O)CSc2nncn2-n2cccc2)cc1 | 114
76 | Cc1nnsc1C(=O)Nc1ccccc1C(F)(F)F | 117
77 | CCN1CCN(CC(=O)Nc2ccc(C)cc2C)C(=O)C1=O | 100
78 | Cc1ccc2nc(SC(C)c3ccccc3)nc(=O)n2c1 (configuration not stated) | 126
79 | Cc1cc(NC(=O)CSc2nc3sc4c(c3c(=O)[nH]2)CCC(C(C)(C)C)C4)no1 (configuration not stated) | 87.7
80 | Cc1nc2c(cc1NC(=O)Nc1ccccc1Cl)nc(C)n2Cc1ccccc1 | 122
81 | CCC(C)NC(=O)C(C)C1CCN(C(=O)c2cc3ccccc3[nH]2)CC1 (configuration not stated) | 104
82 | Cn1c(=O)[nH]c(=O)c2c1nc(CN1CCN(c3cccc(Cl)c3)CC1)n2Cc1cccc(Cl)c1 | 118
83 | CCc1cccc(NC(=O)Cn2cnc3sc(-c4nc(-c5ccncc5)no4)c(C)c3c2=O)c1 | 91.6
84 | O=C(NC1CCCCC1)N1CCC(n2cnc3cccnc32)CC1 | 101
85 | COc1cc(Nc2c(C)c(C)nc3nc(Cc4cccc(F)c4)nn23)cc(OC)c1 | 127
86 | Cc1ccc(CNc2ncccc2-c2nc(-c3ccccc3C)no2)cc1 | 103
87 | COc1cc(Cl)ccc1Oc1ncnc2oc(C)c(C)c12 | 121
88 | COc1cc(CNC(=O)CCn2c(-c3ccccn3)cc3cccnc32)cc(OC)c1 | 108

Row | SMILES | host macrophage viability [%]
89 | CN(C)C(CNS(=O)(=O)c1ccc2c(c1)NC(=O)CO2)c1ccc2c(c1)OCO2 (configuration not stated) | 102
90 | COC(=O)c1ccc(CSc2nc3sc(C(=O)O)c(C)c3c(=O)[nH]2)cc1 | 114
91 | Fc1cccc2sc(Nc3nc(-c4nc5ccccc5s4)cs3)nc12 | 113 ± 17
92 | O=C(Cn1ncn2nc3c(c2c1=O)CCCC3)Nc1ccc2c(c1)OCCO2 | 130
93 | CCc1ccc2c(c1)C(O)(c1c(C)[nH]c3ccccc13)C(=O)N2 (configuration not stated) | 92.2
94 | COc1ccc2c(C)cc(SCC(=O)Nc3ccc4c(c3)OCO4)nc2c1 | 130
95 | Cc1ccc(CN(CC(=O)N2CCNCC2)C(=O)c2cccnc2)cc1C | 114
96 | Cc1cc2oc(C(=O)N(C)Cc3nc4cc(Cl)ccc4[nH]3)cc(=O)c2cc1C | 108
97 | COc1ccc(NC(=O)c2cc(-c3ccc4c(c3)OCCO4)on2)c(OC)c1 | 121
98 | COC(=O)c1sccc1S(=O)(=O)Nc1ccc(F)cc1Cl | 116
99 | CCc1nc2onc(C)c2c(=O)n1CC(=O)OC | 111
100 | COc1ccc(S(=O)(=O)NC(=N)NCCc2c(C)[nH]c3ccc(F)cc23)cc1C | 132
101 | COc1ccc(CCNc2nc(C)nc3sc4c(c23)CCCC4)cc1OC | 117
102 | Cc1sc(NC(=O)c2cccnc2)nc1-c1ccc2c(c1)CCN2C(=O)C(C)C | 106
103 | O=C(Nc1ccc2c(c1)CCC2)C1CCCN(C(=O)Nc2ccc(F)cc2)C1 (configuration not stated) | 115
104 | Cc1cccc(-n2ccnc2SCC(=O)Nc2ccc3c(c2)OCCO3)c1C | 122
105 | O=C(CN1C(=O)CSC1=O)c1ccc(NC(=O)c2ccccc2)cc1 | 132
106 | CCSc1nsc(NC(=O)Nc2cccc(C(C)=O)c2)n1 | 116
107 | O=C(CC1Sc2ccc(C(F)(F)F)cc2NC1=O)NC1CCCCC1 (configuration not stated) | 115
